Source: the supplement of paper PMC6078165
Values are relative to the signal before dosing, not to a vehicle control; the signal also falls without drug.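 Cells used are triple-negative breast cancer lines, either basal-like or mesenchymal-like, grown in the absence of fibroblasts. Lower red signal means mitochondrial integrity is lost, a surrogate for apoptosis.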

Columns and labels:
Assay in all cases: relative JC-1 red fluorescence (viability) vs pre-drug, monoculture (fraction); higher = more viable cancer cells
Conditions in all cases: coculture fibroblast: none (monoculture)
[1] = test system: BT20
Description: (§1)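 JC-1 labelled TNBC cells grown in monoculture (density kept equal with unlabelled cancer cells) in 384-well plates in FluoroBrite medium, treated with one of 42 anticancer drugs at 0.1, 1, 10 or 100 uM. JC-1 red fluorescence (mitochondrial integrity, surrogate of apoptotic death) was read by plate reader every 8 h for 72 h. Values are normalised to each well's pre-drug value, with background from alamethicin. The stock of one drug was tenfold lower, so its dose labels may be too high. Monoculture values are repeated alongside each fibroblast plate and are averaged here.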

[2] = test system: MDAMB231
Description: as §1

[3] = test system: MDAMB468
Description: as §1

[4] = test system: MDAMB436
Description: as §1

CO[C@@]12[C@H](COC(N)=O)C3=C(C(=O)C(C)=C(N)C3=O)N1C[C@@H]1N[C@@H]12 [Mitomycin C]
relative JC-1 red fluorescence
Conditions	8 h	16 h	24 h	32 h	40 h	48 h	56 h	64 h	72 h
[1], 0.1 µM	0.946	0.889	0.761	0.689	0.654	0.621	0.597	0.567	0.562
[1], 1 µM	0.894	0.801	0.789	0.733	0.691	0.659	0.63	0.605	0.585
[1], 10 µM	0.907	0.84	0.735	0.646	0.581	0.536	0.512	0.49	0.477
[1], 100 µM	0.744	0.601	0.739	0.691	0.662	0.675	0.656	0.67	0.672
[2], 0.1 µM	0.7	0.7062	0.504	0.563	0.512	0.48	0.435	0.445	0.438
[2], 1 µM	0.693	0.67	0.585	0.584	0.528	0.508	0.476	0.476	0.475
[2], 10 µM	0.7265	0.7418	0.586	0.625	0.5941	0.553	0.522	0.534	0.528
[2], 100 µM	0.6004	0.573	0.624	0.554	0.542	0.585	0.594	0.647	0.651
[3], 0.1 µM	0.891	0.844	0.8	0.705	0.667	0.631	0.59	0.566	0.547
[3], 1 µM	0.872	0.7568	0.78	0.727	0.691	0.708	0.7	0.685	0.69
[3], 10 µM	0.8995	0.818	0.715	0.618	0.559	0.503	0.46	0.428	0.417
[3], 100 µM	0.566	0.608	0.603	0.551	0.518	0.535	0.51	0.513	0.518
[4], 0.1 µM	0.847	0.787	0.747	0.674	0.658	0.655	0.656	0.657	0.655
[4], 1 µM	0.802	0.7362	0.7194	0.665	0.642	0.632	0.618	0.62	0.62
[4], 10 µM	0.865	0.801	0.775	0.707	0.6747	0.6699	0.664	0.659	0.659
[4], 100 µM	0.7079	0.787	0.858	0.855	0.818	0.812	0.771	0.842	0.845

O=C(CCCCCCC(=O)Nc1ccccc1)NO [Vorinostat]
relative JC-1 red fluorescence
Conditions	8 h	16 h	24 h	32 h	40 h	48 h	56 h	64 h	72 h
[1], 0.1 µM	0.95	0.824	0.751	0.6731	0.6226	0.5886	0.56	0.543	0.527
[1], 1 µM	0.9226	0.8651	0.7626	0.6881	0.647	0.615	0.584	0.563	0.544
[1], 10 µM	0.947	0.871	0.728	0.653	0.612	0.585	0.556	0.53	0.51
[1], 100 µM	0.948	0.884	0.788	0.69	0.647	0.624	0.558	0.509	0.479
[2], 0.1 µM	0.76368	0.7068	0.73	0.6557	0.6343	0.645	0.6201	0.6526	0.6785
[2], 1 µM	0.725	0.705	0.578	0.625	0.607	0.592	0.575	0.6	0.61
[2], 10 µM	0.718	0.672	0.615	0.643	0.635	0.642	0.631	0.673	0.674
[2], 100 µM	0.7461	0.71	0.654	0.6361	0.621	0.632	0.612	0.637	0.636
[3], 0.1 µM	0.8956	0.81	0.739	0.673	0.625	0.611	0.575	0.565	0.557
[3], 1 µM	0.8646	0.788	0.702	0.615	0.553	0.538	0.505	0.498	0.496
[3], 10 µM	0.8854	0.739	0.618	0.521	0.471	0.456	0.426	0.418	0.409
[3], 100 µM	0.915	0.795	0.65	0.508	0.452	0.424	0.379	0.359	0.354
[4], 0.1 µM	0.8278	0.6874	0.6752	0.6145	0.5913	0.5747	0.5633	0.56	0.56
[4], 1 µM	0.855	0.781	0.742	0.669	0.641	0.629	0.609	0.608	0.607
[4], 10 µM	0.84174	0.7402	0.725	0.659	0.6285	0.605	0.603	0.601	0.595
[4], 100 µM	0.8861	0.7577	0.7128	0.62	0.585	0.564	0.56	0.553	0.557
